Results on one molecule are retold here after patent US20230074657A1.

Amino acid sequences for entries named in this document (tags omitted). Residues count along the entry.
UniProt P18627, residues 23-450: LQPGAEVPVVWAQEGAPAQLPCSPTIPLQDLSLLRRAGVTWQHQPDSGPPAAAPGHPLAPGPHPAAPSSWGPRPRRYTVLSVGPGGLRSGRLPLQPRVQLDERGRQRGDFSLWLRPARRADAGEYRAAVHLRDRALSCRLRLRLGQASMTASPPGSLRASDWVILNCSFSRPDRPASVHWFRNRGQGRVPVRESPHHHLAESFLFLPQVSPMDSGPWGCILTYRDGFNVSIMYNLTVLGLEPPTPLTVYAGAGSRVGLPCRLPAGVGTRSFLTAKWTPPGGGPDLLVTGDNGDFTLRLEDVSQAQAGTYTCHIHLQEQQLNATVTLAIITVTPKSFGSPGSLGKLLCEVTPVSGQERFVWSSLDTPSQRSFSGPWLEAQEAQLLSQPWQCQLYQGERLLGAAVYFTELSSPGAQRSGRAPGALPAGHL

Results are given in words; binding and its absence hold for the method and conditions named. Some entries that bind do so weakly or less than the wild type.

For experiment [1], the target named is LAG3-Fc recombinant protein (UniProt P18627). The experiment is described as follows: ELISA, plate coated with LAG3-Fc. A general note: An ELISA detects its analyte on a solid surface through an enzyme-linked reagent.
Experiment [2] shares this target. The experiment is described as follows: ELISA on coated LAG3-Fc, anti-human kappa-HRP.

B1: anti-LAG3 chimeric antibody c6H11B10 (antibody, human IgG4 S228P, V domains shown)
VH: EVQVVESGGGLVKPGGSLKLSCAASGFTFSDYYMFWVRQTPEERLEWVATINDGGDYTNYPDSVKGRFTISRDNDKNKLYLQMNSLKSEDTAMYYCARESGIYYDYASFGYWGQGTLVTVSS
VL: DIVMTQAAFSNPVTLGTSASISCRSSKSLLYSNGITYLYWYLQKPGQSPQLLIYQMSNLASGVPDRFSSSGSGTDFTLRISRVEAEDVGVYYCAQNLELPWTFGGGTKLEIKR
Take B1: the binding result in experiment [1] and in experiment [2] was “binds” throughout.
